This is an account of results in PubChem BioAssay AID2685 (National Center for Advancing Translational Sciences (NCATS), 2010).

Usually AC50 stands for the midpoint of the concentration-response curve, whichever way the signal moves. Read a high AC50 as activity only at high concentration.

This assay can be described thus: qHTS Assay for Lipid Storage Modulators in Drosophila S3 Cells.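 For cell number change: cells counted by Cell Tracker Red CMTPX staining in the red channel.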 Conditions: BODIPY lipid droplet fluorescence, 18-24 h; for cell number change: measured here: cell count max response, cells fed with added oleic acid. Put shortly: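 Drosophila S3 cells got compounds at several concentrations plus oleic acid (400 uM solution). Laser-scanning cytometry with 488 nm excitation read lipid droplets at 500-530 nm and cells at 575-640 nm. Percent activity was relative to 20 uM Triacsin C.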
(Quantitative high-throughput screening tests each substance at several concentrations.)

Where [1] appears, read: measured here: cell number channel AC50, cells fed with added oleic acid.
Setting [2] is: measured here: lipid fluorescence (Fed channel) AC50, cells fed with added oleic acid.

Each structure is given as a SMILES string. Several values for one entry are separate records, joined by “and”; a condition that tells them apart may be missing. Equal values may be shown once. The list shows a part of the results. Further columns of the screen follow, without active or inactive calls. Compounds called inactive in the main read-out are mostly missing here. Potencies come from curve fits of mixed quality, noted in brackets.

Regarding `CN(C)C=C1C(=O)N(C2CCCCC2)C(=O)N(C2CCCCC2)C1=O`, the cell number change was -13.7%. Under setting [1], the AC50 was 0.517 µM [rising, single point]. In the case of `COc1ccc(C(=O)N/N=C/C23CC[C@@H](O)CC2(O)CC[C@@H]2[C@@H]3CCC3(C)C(C4=CC(=O)OC4)CCC23O)cc1` (stereo partly specified), the cell number change is -17.6%. Moreover, the AC50 under setting [1] is 3.26 µM [falling, single point].

Consider `CCC(C)C(NC(=O)CCCNC(=O)CCC(=O)OC1O[C@H]2OC3(C)CC[C@H]4[C@H](C)CCC(C1C)C24OO3)C(=O)O` (stereo partly specified), for which the cell number change came out at 24.8%. Same read-out and setting: in the case of `CCCCCCCCCOc1ccc2[nH]cc(CCN)c2c1` it was -23.2%. With `COC(=O)C1=C(c2ccc(OC)c(OC)c2)C[C@@H]2CC[C@H]1N2C(=O)NC1CCCCC1`, the cell number change is -20%. Further, the AC50 under setting [1] was 0.651 µM [rising, single point]. Regarding `FC(F)(F)c1ccc2c(c1)nnn2C1CCN(Cc2nnnn2Cc2ccccc2)CC1`, the cell number change is -24.4%. Also, the AC50 under setting [2] was 11.6 µM [rising, single point]. Consider `O=c1[nH]c(=O)n(CC2CCCO2)c(O)c1/C=C1\C=Nc2ccccc21` (stereo unspecified), for which the cell number change is -4.89%. Regarding `Cc1cc(C)cc(OCCOc2cccc(C=C3C(=O)NC(=O)NC3=O)c2)c1`, the cell number change was -6.56%. For the same compound, the AC50 under setting [2] was 6.51 µM [falling, partial curve, poor fit]. As to `Cc1cccc(OCC(=O)N2CCN(Cc3ccncc3)CC2)c1`, the cell number change was 61.9%. Also, under setting [1], the AC50 is 18.4 µM [rising, single point]. On to `Cc1cc(OC(=O)CCCNC(=O)OC(C)(C)C)c2c3c(c(=O)oc2c1)CCC3`, for which the cell number change was -36.7%.

As for `Cc1ccccc1Cc1c(C)nc2nc(SCC(=O)N3CCC4(CC3)OCCO4)nn2c1C`, the cell number change came to 7.65%. `CCOP(=O)(OCC)C(O)c1ccc(OC)cc1` (stereo unspecified): the cell number change worked out at 9.47%. Further, the AC50 under setting [2] is 2.91 µM [rising, full curve, poor fit]. On to `CC(C)c1ccc(N=Cc2c(O)n(C3CC3)c(=S)[nH]c2=O)cc1`, for which the cell number change is -3.42%. Also, under setting [1], the AC50 is 0.13 µM [falling, full curve, poor fit]. Besides, the AC50 under setting [2] was 0.13 µM [falling, full curve, poor fit]. `Cc1ccc2c(c1)C1CN(C)CCC1N2C(=O)Cn1cnc2c1c(=O)n(C)c(=O)n2C` (stereo unspecified): the cell number change was -37.1%. The AC50 under setting [1] is 1.16 µM [falling, full curve, poor fit]. For the compound `Cc1ccc(CC(=O)N2CCN(Cc3ccccc3)CC2)cc1`, the cell number change was -12.7%. Also, the AC50 under setting [1] is 0.58 µM [rising, single point]. The AC50 under setting [2] is 0.146 µM [rising, single point]. With `Cc1ccccc1-c1nc2ccccc2c(=O)n1C`, the cell number change was -1.17%. For the same compound, the AC50 under setting [2] was 3.26 µM [rising, single point]. `COC(=O)c1ccc(NC(=O)CSc2nc3ccc(N4C(=O)C5C6C=CC(C6)C5C4=O)cc3s2)cc1` (stereo unspecified): the cell number change was 23.4%. Moreover, the AC50 under setting [2] is 0.82 µM [falling, full curve]. As for `CCNc1cc(N2CCNCC2)ccc1[N+](=O)[O-]`, the cell number change is -11.2%. Moreover, the AC50 under setting [2] is 0.517 µM [falling, single point].

`CCN(CC)C(=O)c1ccc(NC(=O)Nc2ccccc2F)cc1`: the cell number change was determined as 35.9%. For the same compound, the AC50 under setting [1] is 2.31 µM [rising, full curve]. The AC50 under setting [2] is 20.6 µM [rising, single point]. Regarding `CC(=O)Nc1ccc(C2CN(C)CC2C(=O)c2ccc(Cl)cc2)cc1` (stereo unspecified), the cell number change was 19.3%. Take `C[C@H]1CCCC(=O)CCCCCc2cc(O)cc(O)c2C(=O)O1`: the cell number change was -49.4%. Moreover, the AC50 under setting [1] was 18.4 µM [falling, partial curve]. Take `CCC(C#N)(CC)P(=S)(c1ccccc1)c1ccccc1`: the cell number change amounted to 11.5%. In addition, the AC50 under setting [2] was 14.6 µM [rising, single point]. With `COC(=O)C1=C(c2c(C)noc2C)C[C@@H]2CC[C@H]1N2C(=O)NCCOc1ccc(OC)cc1`, the cell number change is -40.3%. Further, under setting [1], the AC50 is 6.51 µM [falling, single point]. For `CC(C)c1ccc(NC(=O)CCNC(=O)N2C[C@H]3C[C@@H](C2)c2cccc(=O)n2C3)cc1`, the cell number change was -3.95%. In the case of `O=C1CCCN1C(=O)c1cncc(Br)c1`, the cell number change worked out at 1.79%. The AC50 under setting [2] is 0.58 µM [rising, single point]. As to `CC(NCc1ccccc1C(F)(F)F)C(O)c1ccccc1` (stereo unspecified), the cell number change stood at 127%. Moreover, the AC50 under setting [1] was 3.66 µM [falling, single point]. `Cc1cc(OCC(=O)NCC(O)c2ccccc2)c2c3c(c(=O)oc2c1)CCCC3` (stereo unspecified): the cell number change is -8.06%. Same read-out and setting: the figure for `COC(=O)C1=C(c2cccc(OCc3ccccc3)c2)C[C@@H]2CC[C@H]1N2C(=O)NCc1ccc(N(C)C)cc1` is 20.2%. In the case of `CCCCCn1c(NC(=O)c2ccco2)c(C(=O)OCC)c2nc3ccccc3nc21`, the cell number change worked out at 6.37%. The AC50 under setting [2] was 20.6 µM [rising, single point]. For `C=C(C)CN1CC[C@]23c4c5ccc(O)c4O[C@H]2c2[nH]c4ccccc4c2C[C@@]3(O)C1C5`, the cell number change was -69.6%. The AC50 under setting [1] was 23.1 µM [falling, single point]. Besides, the AC50 under setting [2] is 18.4 µM [falling, single point]. As for `O=C1NCCN2CCCC12` (stereo unspecified), the cell number change stood at 6.88%. In the case of `O=C1NC(=O)N(c2ccc3c(c2)OCO3)C(=O)/C1=C/c1ccsc1`, the cell number change worked out at 8.67%. Also, the AC50 under setting [2] is 18.4 µM [falling, partial curve]. Take `Cn1c(O)c(C=NCCCN2CCCC2=O)c(=O)n(C)c1=O`: the cell number change was -16.6%. Further, the AC50 under setting [2] was 0.517 µM [falling, single point]. Take `O=[N+]([O-])c1cccc(CN2CCN(Cc3ccc(Cl)cc3)CC2)c1`: the cell number change is -41%. Moreover, under setting [1], the AC50 is 7.31 µM [falling, partial curve, poor fit]. Consider `CCCCCn1c(=O)c(C(=O)NCc2ccccc2)c(O)c2ccccc21`, for which the cell number change is -4.76%. For the same compound, under setting [2], the AC50 is 0.206 µM [falling, full curve, poor fit]. On to `COc1ccc(NC(=O)N2C[C@@H]3C[C@@H](C2)c2cccc(=O)n2C3)c(OC)c1`, for which the cell number change amounted to 20.1%. Besides, the AC50 under setting [2] was 6.51 µM [falling, single point]. `CSc1nc(N)c(N=Nc2ccc([As](=O)(O)O)cc2)c(=O)[nH]1`: the cell number change is -31.6%. In addition, under setting [2], the AC50 was 1.64 µM [falling, partial curve]. As to `CC1=CC(=O)NP(=O)(Oc2ccc3ccccc3c2)N1` (stereo unspecified), the cell number change was determined as 1.04%. For the same compound, the AC50 under setting [2] is 5.17 µM [rising, full curve]. On to `N=Cc1c(O)n(-c2ccccc2)c(=O)n(-c2ccccc2)c1=O`, for which the cell number change is -19.9%. Also, the AC50 under setting [2] was 23.1 µM [rising, single point]. As for `O=C(NC(=S)N1C[C@H]2C[C@H](C1)c1cccc(=O)n1C2)c1ccc(F)cc1`, the cell number change came out at 17.8%. In addition, the AC50 under setting [2] is 0.58 µM [falling, single point].

Turning to `CCc1nc2ccccc2c(=O)n1-c1ccc2ccccc2c1`, the cell number change turned out to be 33.4%. For the same compound, the AC50 under setting [1] was 13 µM [rising, partial curve]. In addition, under setting [2], the AC50 is 13 µM [rising, partial curve]. `Cn1c(O)c(C(=Nc2ccccc2)SCc2ccc(Cl)cc2)c(=O)n(C)c1=O`: the cell number change is -19.8%. Further, under setting [2], the AC50 was 29.1 µM [falling, single point]. Consider `CC1CCN2c3nc4ccccn4c(=O)c3CC3(C(=O)N(C)C(=O)N(C)C3=O)C2C1` (stereo unspecified), for which the AC50 under setting [2] was 2.06 µM [falling, partial curve].

Take `CCCCn1c(N)c(C(=O)NCCN2CCOCC2)c2nc3ccccc3nc21`: the cell number change is -9.09%. The AC50 under setting [1] is 6.51 µM [rising, single point]. The AC50 under setting [2] was 18.4 µM [falling, single point]. Turning to `CCCCN1CCC(C#N)(Nc2ccccc2)CC1`, the cell number change was -26.6%. Moreover, the AC50 under setting [1] was 3.26 µM [falling, full curve, poor fit]. Moreover, the AC50 under setting [2] was 2.59 µM [falling, full curve]. Regarding `CN(C)S(=O)(=O)c1cccc(C(=O)N2CCC(C(=O)O)(c3ccccc3)CC2)c1`, the cell number change was 21.7%. Further, under setting [1], the AC50 is 0.731 µM [rising, full curve, poor fit]. Take `Cc1ccc2cc(C=C(C#N)C#N)c(Cl)nc2c1`: the cell number change is -15.9%. In addition, the AC50 under setting [2] is 32.6 µM [falling, single point].

For `CCCCc1ncc(CN2CCCC(C(=O)c3ccc(SC)cc3)C2)[nH]1` (stereo unspecified), the cell number change was -1.34%. Consider `CCN(CC)C(=O)c1ccc(NC(=S)NC(=O)CCc2ccccc2)cc1`, for which the cell number change worked out at 1.49%. The AC50 under setting [2] is 6.51 µM [falling, single point]. Consider `Cn1c(O)c(/C=N/c2ncccn2)c(=O)n(C)c1=O`, for which the cell number change is -11.8%. Besides, the AC50 under setting [1] is 0.184 µM [falling, full curve, poor fit]. For the same compound, the AC50 under setting [2] is 0.206 µM [falling, full curve, poor fit]. With `Cn1cccc1/C=C1/C(=O)NC(=O)N(Cc2ccc(F)cc2)C1=O`, the cell number change was -15.7%. Moreover, the AC50 under setting [2] is 0.184 µM [falling, full curve]. As to `CCCCCCCCCCCCCCCC[N+](C)(C)C`, the cell number change was -47.6%. In addition, the AC50 under setting [1] was 16.4 µM [falling, partial curve, poor fit].

Turning to `Cc1ccc(S(=O)(=O)N2CCN(C(=O)COC(=O)Cc3ccccc3)CC2)c(C)c1`, the cell number change was -16.5%.

Consider `Cc1c(C=O)c2ccccc2n1Cc1ccccc1`, for which the cell number change came out at 3.56%. Turning to `O=C(Cc1c(O)c2ccccc2oc1=O)c1ccc(F)cc1`, under setting [1], the AC50 was 0.0164 µM [rising, full curve]. `CN1CCN(c2ccc(S(C)(=O)=O)cc2[N+](=O)[O-])CC1`: the cell number change is -6.51%. For the same compound, the AC50 under setting [2] is 6.51 µM [rising, single point].

For the compound `COc1cccc(-n2c(=S)[nH]c3ccccc3c2=O)c1`, the cell number change was -23.3%. For the compound `Oc1ccc2c3c1O[C@H]1[C@@H](O)CC[C@@]4(O)[C@@H](C2)N(CC2CCC2)CC[C@]314`, the cell number change is -29.6% and -25.8%. In addition, the AC50 under setting [2] was 20.6 µM [falling, single point]. As to `CCc1nc2ccc(N3CCN(C)CC3)cc2nc1CC`, the cell number change is -7.95%. Besides, under setting [2], the AC50 is 0.0058 µM [falling, full curve, poor fit]. For `COC1=CC(=O)O[C@@H](/C=C/c2ccccc2)C1`, the cell number change came to 23.5%. Further, the AC50 under setting [2] is 29.1 µM [rising, single point]. For the compound `CC(C)(C)C(=O)c1cn(Cc2ccccc2)c2ccccc12`, the cell number change was -30.5%. Besides, the AC50 under setting [1] is 5.8 µM [falling, partial curve]. For the compound `Cc1ccc2[nH]c(=S)n(-c3cccnc3)c(=O)c2c1`, the cell number change turned out to be 41.7%. Moreover, under setting [1], the AC50 was 11.6 µM [rising, single point].
